Values from PubChem BioAssay AID1259254 (NCATS, 2017).
This is a random part of about 59,000 deposited reagents. About 1,550 of them (2.6%) count as active. 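G2 share is only a proxy for re-replication; each gene was hit by three separate siRNAs, and active genes were retested.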 Reagents against one gene are numbered here. Not all columns of the deposit are shown. Reagent sequences are not shown. Not stated in the record: the amount of reagent.

- Assay: 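Gene knock-downs that lead to re-replication, shown by excess G2 DNA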 (primary screen)
- System: human HCT116 colorectal cancer cells
- Knock-down reagent: single siRNA against human genes
- Time to read-out: 3 days
- Detection: 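Imaged Hoechst DNA stain sorts each cell into a cycle phase by DNA amount; per plate, G2 fraction set to 0% for non-targeting and 100% for GMNN siRNA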
- Reading the numbers: G2 robust z-score: higher = more G2 cells, more excess DNA replication
- Active means: 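An siRNA counts as active if its G2 robust z-score lies at least 5 MADs above the screen median; here such calls match roughly 38% of GMNN control or more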

SPPL2A #1 — G2 robust z-score: -0.492; activity call: inactive
SPPL2A #2 — G2 robust z-score: 5.77; activity call: active
SPPL2A #3 — G2 robust z-score: 0.63; activity call: inactive
PAX1 #1 — G2 robust z-score: 0.5; activity call: inactive
PAX1 #2 — G2 robust z-score: 0.649; activity call: inactive
PAX1 #3 — G2 robust z-score: -0.641; activity call: inactive

Entries listed so far with an active call, once more:
SPPL2A #2 — G2 robust z-score: 5.77; activity call: active

The list goes on:
MKRN2 #1 — G2 robust z-score: -1.53; activity call: inactive
MKRN2 #2 — G2 robust z-score: -0.739; activity call: inactive
MKRN2 #3 — G2 robust z-score: 0.00144; activity call: inactive
SAFB #1 — G2 robust z-score: -0.112; activity call: inactive
SAFB #2 — G2 robust z-score: -0.869; activity call: inactive
SAFB #3 — G2 robust z-score: -0.995; activity call: inactive
